Drawing on publication PMC8700327, this text covers binding for two substances.

Chains of the proteins cited; added tags and fusions are not shown.
UniProt Q86YP4: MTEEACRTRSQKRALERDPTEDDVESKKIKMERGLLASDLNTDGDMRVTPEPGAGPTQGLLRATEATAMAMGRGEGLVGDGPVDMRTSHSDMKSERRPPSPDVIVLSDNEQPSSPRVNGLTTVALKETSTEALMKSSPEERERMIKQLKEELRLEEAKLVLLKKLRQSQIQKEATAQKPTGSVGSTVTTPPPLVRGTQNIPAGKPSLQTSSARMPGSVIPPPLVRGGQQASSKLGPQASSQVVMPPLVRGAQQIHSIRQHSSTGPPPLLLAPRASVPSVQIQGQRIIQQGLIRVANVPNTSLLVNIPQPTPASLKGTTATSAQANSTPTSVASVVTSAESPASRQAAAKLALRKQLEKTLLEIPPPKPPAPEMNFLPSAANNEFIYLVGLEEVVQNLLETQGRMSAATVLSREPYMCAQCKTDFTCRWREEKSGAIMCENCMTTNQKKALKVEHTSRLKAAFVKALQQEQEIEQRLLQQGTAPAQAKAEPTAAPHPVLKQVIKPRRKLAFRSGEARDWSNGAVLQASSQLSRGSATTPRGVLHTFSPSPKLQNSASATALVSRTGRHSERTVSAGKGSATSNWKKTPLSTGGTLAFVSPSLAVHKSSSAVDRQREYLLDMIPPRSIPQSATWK

These are yes or no findings as the source states them, for the method shown. Binding seen in cells or lysates may run through a third protein. Some results given as binding are weak or reduced against the parent protein; the word gives no strength.

The target in assay [1] is Flag-p66α (GATA zinc finger domain-containing protein 2A) (UniProt Q86YP4). The assay is described as follows: co-IP; whole-cell lysate of HEK-293T-Flag-p66α cells; precipitated with antibody against p66α or Flag M2 beads; Western blot with monoclonal anti-p53 antibody for endogenous p53. In general terms: A western blot detects proteins with antibodies after separation by electrophoresis.

For assay [2] the target is unchanged. In words: co-IP; tagged proteins transiently co-expressed in HEK-293T cells; lysis in 20 mM Tris pH 7.5, 150 mM NaCl, 2.5 mM EDTA, DTT; Flag M2 beads; Western blot for the other tag.

Consider “endogenous p53 (from UniProt P04637 1-393)”, for which the binding entry in assay [1] is “binds”. As to GFP-p53 (from UniProt P04637 1-393), in assay [2], the binding result was “binds”.
